In the assay the test system is human colon adenocarcinoma cell line (LoVo). Briefly: cells. The conditions noted are these: 72 h, read-out: IC50 LoVo. The class given is cell-based. The source says:
The BALB/3T3 cell line was purchased from the American Type Culture Collection (ATCC, Manassas, VA, USA), A549 and MCF-7 cell lines—from European Collection of Authenticated Cell Cultures (Salisbury, UK). The LoVo cell line was purchased from the American Type Culture Collection (ATCC, Manassas, VA, USA), and LoVo/DX by courtesy of Prof. E. Borowski (Technical University of Gdańsk, Gdańsk, Poland). All the cell lines are maintained in the Institute of Immunology and Experimental Therapy (IIET), Wroclaw, Poland. […]
After 72 h of incubation with the tested compounds, cells were fixed in situ by gently adding 50 μL per well of cold 50% trichloroacetic acid TCA (POCh, Gliwice, Poland) and were incubated at 4 °C for one hour. […] Absorbance of each solution was read at Synergy H4 Hybrid Multi-Mode Microplate Reader (BioTek Instruments, Inc., Winooski, VT, USA) at the 540 nm wavelength.
IC50 values were calculated in Cheburator 0.4, Dmitry Nevozhay software (version 1.2.0 software by Dmitry Nevozhay, 2004–2014, http://www.cheburator.nevozhay.com, freely available) for each experiment. […] The Resistance Index (RI) was defined as the ratio of IC50 for a given compound calculated for resistant cell line to that measured for its parental drug sensitive cell line (Table 1).

In the case of `COc1cc2c(c(OC)c1OC)-c1ccc(OC)c(=O)cc1[C@@H](NC(C)=O)CC2` [Compound 1, Colchicine, reference compound], the half-maximal inhibitory concentration (IC50) (commonly the concentration that gives 50% inhibition) stood at 108 ± 25 nM.
